In PubChem BioAssay (Tox21):
“And” between values parts separate entries of the source, which are not always exact repeats. Equal values may be shown once. Most of the hits are listed elsewhere, so they are rarer here than in the full data. Results filed as inconclusive are left out. The source made the active and inactive calls. Unless noted, the call rests on the fitted dose curve; in most records, active means well fitted curve in the direction sought with a large enough effect in the repeat runs; inconclusive means weak or mixed curves; inactive means no such curve, though single readings can be large; an effect the other way counts as inactive or inconclusive.

Assay: qHTS assay for small molecule activators of the heat shock response signaling pathway - cell viability counter screen (AID 743209); further: nearly all actives have a fitted effect of over 50% in size
Settings: HSE-bla HeLa viability, CellTiter-Glo luminescence, 5 h; at 62.6 µM (top of the series)
Procedure, shortened: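 Counter screen for cytotoxicity in HeLa HSE-bla reporter cells. Treatment was 5 h at 37 C; viability was detected by luminescent ATP assay (CellTiter-Glo) in the same wells as the beta-lactamase read.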
On the % scale 0 is the no-effect control and ±100 the full control effect.

Row | Compound | activity change, negative = cytotoxicity
1 | Oc1c(Cl)cc(Cl)cc1Cl | inactive: 7.17% and inactive: -0.483%
2 | Cc1ccc2ccccc2c1C | inactive: 0.0694%
3 | Cc1ccc(O)cc1C | inactive: -17.8%
4 | CC(C)(C)c1ccc(O)cc1 | inactive: 1.96% and inactive: -10.2%

Same assay, conditions: HSE-bla HeLa viability, CellTiter-Glo luminescence, 5 h; at 81.1 µM (top of the series)

Row | Compound | activity change, negative = cytotoxicity
5 | Cc1ccc2ccccc2c1C | inactive: 1.28%
6 | Cc1ccc(O)cc1C | inactive: 0.689%
7 | CC(C)(C)c1ccc(O)cc1 | inactive: -9.63%
8 | O=[N+]([O-])c1ccccc1Cl | inactive: -12.5%

Assay: qHTS assay to identify small molecule agonists of the peroxisome proliferator-activated receptor delta (PPARd) signaling pathway - cell viability counter screen (AID 743211); further: nearly all actives have a fitted effect of over 55% in size
Settings: PPARd-bla HEK293H viability, CellTiter-Glo luminescence, 17 h; at 62.6 µM (top of the series)
Procedure, shortened: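 Luminescent ATP viability assay (CellTiter-Glo, 30 min RT) in UAS-bla HEK293H cells carrying the PPAR delta reporter construct, 3000 cells/well, after a 17 h compound treatment at 37 C.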

Row | Compound | activity change, negative = cytotoxicity
9 | Oc1c(Cl)cc(Cl)cc1Cl | inactive: -11.5% and inactive: -1.5%
10 | Cc1ccc2ccccc2c1C | inactive: 9.25%
11 | CC(C)(C)c1ccc(O)cc1 | inactive: -0.103% and inactive: 6.79%

Same assay, conditions: PPARd-bla HEK293H viability, CellTiter-Glo luminescence, 17 h; at 81.1 µM (top of the series)

Row | Compound | activity change, negative = cytotoxicity
12 | Cc1ccc2ccccc2c1C | inactive: 7.77%
13 | Cc1ccc(O)cc1C | inactive: 5.42%
14 | CC(C)(C)c1ccc(O)cc1 | inactive: -4.26%
15 | O=[N+]([O-])c1ccccc1Cl | inactive: 1.44%

Assay: qHTS assay to identify small molecule antagonists of the peroxisome proliferator-activated receptor delta (PPARd) signaling pathway - cell viability counter screen (AID 743213); further: nearly all actives have a fitted effect of over 50% in size
Settings: PPARd-bla HEK293H viability, CellTiter-Glo luminescence, 17 h; at 62 µM (top of the series)
Procedure, shortened: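 In this counter screen, HEK293H cells carrying a UAS-beta-lactamase reporter are co-treated with test compounds and 300 nM L165041 (final) for 17 h at 37 C; cell viability is quantified by CellTiter-Glo luminescence.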

Row | Compound | viability change, negative = cytotoxic
16 | Oc1c(Cl)cc(Cl)cc1Cl | inactive: -10.7%
17 | Cc1ccc2ccccc2c1C | inactive: -0.3%
18 | CC(C)(C)c1ccc(O)cc1 | inactive: -14% and inactive: -1.45%

Same assay, conditions: PPARd-bla HEK293H viability, CellTiter-Glo luminescence, 17 h; at 80.4 µM (top of the series)

Row | Compound | viability change, negative = cytotoxic
19 | Cc1ccc2ccccc2c1C | inactive: 7.8%
20 | Cc1ccc(O)cc1C | inactive: 3.91%
21 | CC(C)(C)c1ccc(O)cc1 | inactive: -9.68%

Assay: qHTS assay to identify small molecule agonists of the farnesoid-X-receptor (FXR) signaling pathway - cell viability counter screen (AID 743218); further: nearly all actives have a fitted effect of over 45% in size
Settings: FXR-bla HEK293T viability, CellTiter-Glo luminescence, 16 h; at 62.6 µM (top of the series)
Procedure, shortened: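 After 16 h at 37 C with test compounds, FXR-bla HEK 293T cells were given LiveBLAzer B/G substrate for 2 h at RT and then CellTiter-Glo; luminescence was taken after 30 min.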

Row | Compound | viability change, negative = cytotoxic
22 | Oc1c(Cl)cc(Cl)cc1Cl | inactive: -14.8% and inactive: 9.65%
23 | Cc1ccc2ccccc2c1C | inactive: -2.18%
24 | CC(C)(C)c1ccc(O)cc1 | inactive: -7.11% and inactive: 20.4%

Same assay, conditions: FXR-bla HEK293T viability, CellTiter-Glo luminescence, 16 h; at 81.1 µM (top of the series)

Row | Compound | viability change, negative = cytotoxic
25 | Cc1ccc2ccccc2c1C | inactive: 0%
26 | Cc1ccc(O)cc1C | inactive: 11.4%
27 | CC(C)(C)c1ccc(O)cc1 | inactive: 2.6%
28 | O=[N+]([O-])c1ccccc1Cl | inactive: 12.3%

Assay: qHTS assay to identify small molecule antagonists of the farnesoid-X-receptor (FXR) signaling pathway - cell viability counter screen (AID 743221; active means well fitted cell-killing curve with a large enough effect in the repeat runs, not every such curve was filed as active; further: nearly all actives have a fitted effect of over 50% in size)
Settings: FXR-bla HEK293T viability, CellTiter-Glo luminescence, 16 h; at 62.6 µM (top of the series)
Procedure, shortened: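 In GeneBLAzer FXR-UAS-bla HEK 293T cells stimulated with 50 uM chenodeoxycholic acid (final), compounds acted for 16 h at 37 C. Viability was assessed afterwards by CellTiter-Glo luminescence.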

Row | Compound | activity change, negative = cytotoxicity
29 | Oc1c(Cl)cc(Cl)cc1Cl | inactive: -1.37%
30 | Cc1ccc2ccccc2c1C | inactive: 2.24%
31 | CC(C)(C)c1ccc(O)cc1 | inactive: -8.09% and inactive: -0.0639%

Same assay, conditions: FXR-bla HEK293T viability, CellTiter-Glo luminescence, 16 h; at 81.1 µM (top of the series)

Row | Compound | activity change, negative = cytotoxicity
32 | Cc1ccc2ccccc2c1C | inactive: -4.67%
33 | Cc1ccc(O)cc1C | inactive: -2.01%
34 | CC(C)(C)c1ccc(O)cc1 | inactive: -4.19%
35 | O=[N+]([O-])c1ccccc1Cl | inactive: -4.41%
